PubChem BioAssay AID1259405 – NCATS – 2018
Here is one part, drawn at random, of about 50,000 reagents. In the full data, about 4,000 (8%) are marked active. 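Mouse siRNA library applied to hamster cells; one well for each siRNA.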 The numbers tell different reagents against one gene apart.

Assay: 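Knock-downs that lift recombinant protein yield in hamster ovary cells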 (primary screen)
Cell system: Chinese hamster CHO-K1 ovary cells with stable secreted eGFP expression
Reagents: single siRNA against mouse genes, 0.8 pmol siRNA per well (2 µl of 400 nM stock)
Duration: 3 days
Read-out: 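Per-well intracellular GFP measured by laser scanning cytometry, plus viability from ATP luminescence, each relative to plate median of non-targeting control wells, in %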
Direction: GFP, % of control: higher = more GFP per well, higher productivity; viability (ATP), % of control: higher = more viable cells (more ATP)
Rule for the call: 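Called active when intracellular GFP, relative to negative control, is at or above 120%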

target gene | reagent | GFP, % of control | viability (ATP), % of control | activity call
Spink2 (serine peptidase inhibitor, Kazal type 2) | 1 | 52.4 | 87.3 | inactive
Spink2 (serine peptidase inhibitor, Kazal type 2) | 2 | 62.5 | 83.6 | inactive
Spink2 (serine peptidase inhibitor, Kazal type 2) | 3 | 78.5 | 106 | inactive
Or5i1 (olfactory receptor family 5 subfamily I member 1) | 1 | 61.1 | 66.1 | inactive
Or5i1 (olfactory receptor family 5 subfamily I member 1) | 2 | 74 | 92.6 | inactive
Or5i1 (olfactory receptor family 5 subfamily I member 1) | 3 | 100 | 92.6 | inactive
Ephx4 (epoxide hydrolase 4) | 1 | 77.8 | 71.2 | inactive
Ephx4 (epoxide hydrolase 4) | 2 | 94.2 | 87.9 | inactive
Ephx4 (epoxide hydrolase 4) | 3 | 71 | 63.5 | inactive
Rbm12b2 (RNA binding motif protein 12 B2) | 1 | 111 | 85 | inactive
Rbm12b2 (RNA binding motif protein 12 B2) | 2 | 114 | 82.5 | inactive
Rbm12b2 (RNA binding motif protein 12 B2) | 3 | 83.7 | 86.9 | inactive
Fdxacb1 (ferredoxin-fold anticodon binding domain containing 1) | 1 | 44.9 | 68.6 | inactive
Fdxacb1 (ferredoxin-fold anticodon binding domain containing 1) | 2 | 68 | 85.2 | inactive
Fdxacb1 (ferredoxin-fold anticodon binding domain containing 1) | 3 | 107 | 55.8 | inactive
Rab34 (RAB34, member RAS oncogene family) | 1 | 93.1 | 108 | inactive
Rab34 (RAB34, member RAS oncogene family) | 2 | 140 | 107 | active
Rab34 (RAB34, member RAS oncogene family) | 3 | 34.3 | 42.4 | inactive
Or10d1 (olfactory receptor family 10 subfamily D member 1) | 1 | 43.2 | 48.6 | inactive
Or10d1 (olfactory receptor family 10 subfamily D member 1) | 2 | 75.6 | 89.7 | inactive
Or10d1 (olfactory receptor family 10 subfamily D member 1) | 3 | 69.4 | 64.3 | inactive
Defb44-ps (defensin beta 44, pseudogene) | 1 | 43.1 | 72.8 | inactive
Defb44-ps (defensin beta 44, pseudogene) | 2 | 71.3 | 60.4 | inactive
Defb44-ps (defensin beta 44, pseudogene) | 3 | 88.9 | 89.7 | inactive
Bkgd (beta-keto-L-gulonate decarboxylase) | 1 | 78.3 | 58.5 | inactive
Bkgd (beta-keto-L-gulonate decarboxylase) | 2 | 62.5 | 39.1 | inactive
Bkgd (beta-keto-L-gulonate decarboxylase) | 3 | 89 | 101 | inactive
Erbin (Erbb2 interacting protein) | 1 | 59 | 68 | inactive
Erbin (Erbb2 interacting protein) | 2 | 42.7 | 43.1 | inactive
Erbin (Erbb2 interacting protein) | 3 | 72.4 | 82.2 | inactive
Teddm1b (transmembrane epididymal protein 1B) | 1 | 86.6 | 91.5 | inactive
Teddm1b (transmembrane epididymal protein 1B) | 2 | 87.1 | 61.2 | inactive
Teddm1b (transmembrane epididymal protein 1B) | 3 | 87 | 76.6 | inactive
Rgs1 (regulator of G-protein signaling 1) | 1 | 125 | 116 | active
Rgs1 (regulator of G-protein signaling 1) | 2 | 99.9 | 107 | inactive
Rgs1 (regulator of G-protein signaling 1) | 3 | 39.2 | 48.2 | inactive
